# PubChem BioAssay AID1259331, Drosophila RNAi Screening Center, 2017
# Screen: 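Knock-downs that alter ATP level after a high zinc chloride dose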 (primary screen)
# Cells: Drosophila S2R+ cells
# Knock-down reagent: long dsRNA against Drosophila genes
# Duration: 5 days (4 days knock-down, then 1 day zinc)
# Challenge: zinc chloride at 15 mM final level for 1 day
# Read-out: 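Total cellular ATP measured by luciferase luminescence as a viability proxy, turned into Z scores from three plate copies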
# Reading the numbers: mean Z score: higher = more ATP than other wells, better survival under zinc; ATP luminescence: higher = more ATP, more viable cells
# Rule for the call: 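a reagent is called a hit when its Z score is above 1.5 or below -1.5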
# Calls: active = hit, ATP up or down; inactive = not a hit
# The whole screen tested about 3,100 reagents; this is a random part of them. 126 of them (4.1%) count as active. 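Calls are per reagent; zinc was so toxic that few knock-downs lowered ATP further, so most hits raise ATP.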 Raw values vary from plate to plate and are shown uncorrected. Reagents against one gene are numbered here. Names joined by + are all predicted targets of the reagent. Not given: the amount of reagent.
gene,reagent no.,mean Z score,"ATP luminescence, replicate 1","ATP luminescence, replicate 2",outcome
CG14440,1,-0.212,48286,42662,inactive
CG14440,2,-0.137,54510,50995,inactive
rho-7 + CG34231,1,0.852,62124,60152,inactive
Drip,1,0.241,85690,77577,inactive
CG10864,1,0.119,37517,61884,inactive
loj (logjam),1,-0.304,29273,31570,inactive
loj (logjam),2,-0.223,54887,58025,inactive
NijC (Ninjurin C),1,-0.357,40639,54973,inactive
NijC (Ninjurin C),2,0.045,61695,62484,inactive
CG11162,1,0.118,50703,50892,inactive
CG11162,2,0.164,64782,64674,inactive
Srg2 (Sting-regulated gene 2),1,-0.126,30816,32462,inactive
Srg2 (Sting-regulated gene 2),2,-0.00532,58883,52497,inactive
CG33281,1,-0.417,39850,40468,inactive
Tsp42Ek (Tetraspanin 42Ek),1,-0.555,77581,60534,inactive
Tsp42Ek (Tetraspanin 42Ek),2,-0.323,48509,57631,inactive
CG14857,1,-0.242,37416,55110,inactive
CG14857,2,0.0764,60992,60032,inactive

Next part; the last 4 above are carried over.
gene,reagent no.,mean Z score,"ATP luminescence, replicate 1","ATP luminescence, replicate 2",outcome
Tsp42Ek (Tetraspanin 42Ek),1,-0.555,77581,60534,inactive
Tsp42Ek (Tetraspanin 42Ek),2,-0.323,48509,57631,inactive
CG14857,1,-0.242,37416,55110,inactive
CG14857,2,0.0764,60992,60032,inactive
ACXE (Adenylyl cyclase X E),1,0.031,49589,38925,inactive
RYa-R (RYamide receptor),1,-0.58,39782,37365,inactive
eloF (elongase F),1,-0.288,35959,54819,inactive
eloF (elongase F),2,0.732,54373,91300,inactive
GluRIA (Glutamate receptor IA),1,-0.216,75051,56722,inactive
CG33298,1,-0.0729,47821,40210,inactive
CG33298,2,-0.196,52601,54356,inactive
AkhR (Adipokinetic hormone receptor),1,-0.0696,56225,54184,inactive
AkhR (Adipokinetic hormone receptor),2,-0.702,59432,41548,inactive
ATP7,1,0.184,71899,66234,inactive
ATP7,2,-0.176,49917,52281,inactive
CG10051,1,5.54,1.92e5,1.81e5,active
nAChRalpha3 (nicotinic Acetylcholine Receptor alpha3),1,0.272,72071,69018,inactive
nAChRalpha3 (nicotinic Acetylcholine Receptor alpha3),2,0.0594,56876,53567,inactive
comm (commissureless),1,-0.157,69698,63136,inactive
comm (commissureless),2,0.174,60718,57854,inactive
CG18609,1,0.188,72706,76513,inactive
CG18609,2,0.284,67097,68675,inactive
Ir64a (Ionotropic receptor 64a),1,-0.0297,76663,59946,inactive
Ir64a (Ionotropic receptor 64a),2,0.16,61279,63375,inactive
E23 (Early gene at 23),1,0.129,53687,39868,inactive
E23 (Early gene at 23),2,-0.314,53824,46194,inactive
GC (gamma-glutamyl carboxylase),1,-0.0998,68795,74558,inactive
GC (gamma-glutamyl carboxylase),2,0.216,59963,65246,inactive
Gr94a (Gustatory receptor 94a),1,0.164,38685,61832,inactive
Gr94a (Gustatory receptor 94a),2,-0.119,60375,55625,inactive
CG5892,1,0.405,37585,66205,inactive
CG5892,2,-0.617,43348,46194,inactive
